This is an account of results in patent US8524666 (IBCC, dated 2013).

In assay [1] the target is T1, GST-tagged CD44 hyaluronic acid binding-domain (CD44-HABD) (UniProt P16070 21-132).
T1 construct: also called GST-HABD; not shown: glutathione S-transferase (GST) tag
As to the kind of experiment: GST pull-down from transfected MCF-7 lysate, western blot. How it is done:
Full length vimentin or its deletion mutant constructs were transfected into MCF-7 cells. After incubation cells were lysed and lysate was used in pull-down reaction using GST-tagged CD44-HABD proteins immobilised onto glutathione sepharose beads. After pull-down, beads were washed and bound proteins were eluted. Eluates were analysed on western blot. A, vimentin deletion mutants used in pull-down reactions. B, WB of pull-down reactions from vimentin and its deletion mutant transfected cell lysates.
CD44-3MUT binding of vimentin deletion mutants was tested using GST pull-down from cell lysates. MCF-7 cells were transfected with vimentin deletion-constructs on 15 cm cell culture plates using 20 µg DNA with polyethyleneimine (PEI; DNA and PEI were used in ratio 1:2). Transfected cells were incubated at 37° C. for 72 h. Thereafter, adherent cells were washed once with cold PBS and lysed in 2 ml of lysis buffer containing 50 mM Tris pH 8.0, 50 mM NaCl, 2% CHAPS and protease inhibitor cocktail (Roche). For removal of insoluble material the lysates were centrifuged 14000 rpm 30 min at 4° C. Resulting lysates were used in GST pull-down. […] Eluates were pooled and after SDS PAAG pull-down reactions were analysed by western blotting with anti-His specific pAb (H-15) (Santa Cruz Biotechnology) or anti-vimentin specific pAb (Genway).
(In general: A western blot detects proteins with antibodies after separation by electrophoresis.)

In assay [2] the target is T2, glutathione S-transferase (UniProt P08515 1-218 = GST).
T2 construct: Control protein on glutathione sepharose beads; also called GST; GST alone
As to the kind of experiment: GST pull-down from HUVEC membrane lysate, silver staining. Here is the method: To discover endothelial protein targets for previously described angiogenesis inhibiting protein CD44-3MUT (SEQ ID NO: 13) (Päll T et al, Oncogene. 2004 Oct. 14; 23(47):7874-81.), we performed GST pull-down from HUVEC membrane lysates with GST tagged CD44-3MUT (GST-3MUT). For preparation of membrane fractions, adherent cells were washed with ice-cold PBS and lysed in 50 mM Tris pH 8.0, containing protease inhibitor cocktail (Complete, Roche Applied Science, Mannheim, Germany). Insoluble material was pelleted by centrifugation at 14000 rpm 30 min. 4° C. Pellet was then solubilised in buffer containing 2% CHAPS, 50 mM Tris pH 8.0, 50 mM NaCl, protease inhibitor cocktail and centrifuged 14000 rpm 10 min. at 4° C. Resulting lysate was precleared by incubation 2 h with 20 µg glutathione S-transferase immobilised onto 25 µl Glutathione Sepharose 4 Fast Flow beads (Amersham Biosciences, Uppsala, Sweden) at 4° C. After preclearing, lysate was incubated over-night at 4° C. with 10 µg GST, GST-HABD or GST-3MUT proteins immobilised onto 25 µl glutathione sepharose beads. After incubation beads were pelleted in cold centrifuge and washed 4 times with 200 µl buffer containing 50 mM Tris pH 8.0, 150 mM NaCl, protease inhibitor cocktail. Bound proteins were eluted 5 times with 25 µl 20 mM reduced glutathione, 50 mM Tris pH 8.0. […]

B1: vimentin deletion mutant containing aa 97-466 of SEQ ID NO: 1 (other)
chain: KNTRTNEKVELQELNDRFANYIDKVRFLEQQNKILLAELEQLKGQGKSRLGDLYEEEMRELRRQVDQLTNDKARVEVERDNLAEDIMRLREKLQEEMLQREEAENTLQSFRQDFDNASLARLDLERKVESLQEEIAFLKKLHEEEIQELQAQIQEQHVQIDVDVSKPDLTAALRDVRQQYESVAAKNLQEAEEWYKSKFADLSEAANRNNDALRQAKQESTEYRRQVQSLTCEVDALKGTDESLERQMREMEENFAVEAADYQDTIGRLQDEIQNMKEEMARHLREYQDLLNVKMALDIEIATYRKLLEGEESRISLPLPNFSSLNLRETNEDSLPLVDTHSKRTLLIKTVETRDGQVINETSEHHDD
notes: Tested in lysate of transfected MCF-7 cells; The forward oligo carries an ATG start codon before the fragment; not shown: C-terminal Myc and His tags of the pcDNA3.1/MycHis B vector
Regarding B1, the binding result in assay [1] is on record as “no binding”.

B2: vimentin deletion mutant containing aa 134-466 of SEQ ID NO: 1 (other)
chain: ELEQLKGQGKSRLGDLYEEEMRELRRQVDQLTNDKARVEVERDNLAEDIMRLREKLQEEMLQREEAENTLQSFRQDFDNASLARLDLERKVESLQEEIAFLKKLHEEEIQELQAQIQEQHVQIDVDVSKPDLTAALRDVRQQYESVAAKNLQEAEEWYKSKFADLSEAANRNNDALRQAKQESTEYRRQVQSLTCEVDALKGTDESLERQMREMEENFAVEAADYQDTIGRLQDEIQNMKEEMARHLREYQDLLNVKMALDIEIATYRKLLEGEESRISLPLPNFSSLNLRETNEDSLPLVDTHSKRTLLIKTVETRDGQVINETSEHHDD
notes: Tested in lysate of transfected MCF-7 cells; not shown: EGFP and linker of the pEGFP-C3 vector
As for B2, in assay [1], the binding result is reported as “no binding”.

B3: endogenous vimentin of HUVEC (other)
chain: STRSVSSSSYRRNFGGPGTASRPSSSASYVTTSTRTYSLGSALRPSTSRSLYASSPGGVYATRSSAVRLRSSVPGVRLLQDSVDFSLADAINTEFKNTRTNEKVELQELNDRFANYIDKVRFLEQQNKILLAELEQLKGQGKSRLGDLYEEEMRELRRQVDQLTNDKARVEVERDNLAEDIMRLREKLQEEMLQREEAENTLQSFRQDFDNASLARLDLERKVESLQEEIAFLKKLHEEEIQELQAQIQEQHVQIDVDVSKPDLTAALRDVRQQYESVAAKNLQEAEEWYKSKFADLSEAANRNNDALRQAKQESTEYRRQVQSLTCEVDALKGTDESLERQMREMEENFAVEAADYQDTIGRLQDEIQNMKEEMARHLREYQDLLNVKMALDIEIATYRKLLEGEESRISLPLPNFSSLNLRETNEDSLPLVDTHSKRTLLIKTVETRDGQVINETSEHHDD
notes: Endogenous protein of human umbilical vein endothelial cells, tested in membrane lysates and in lysates of surface-biotinylated cells; also called endogenous cell surface expressed vimentin
For the molecule B3, the binding result in assay [2] is given as “no binding”.
